These results are taken from patent publication US20250134667A1 (priority 2022, published 2025).

Ends that are not written are not given here.

A short description of this data set: general procedure: Fmoc solid-phase peptide synthesis; Rink Amide MBHA resin; HBTU/DIPEA. The note with it: whole synthesis, liquid chromatography, scale of the general procedure 50 mg resin.

With “GKCSTRGRKSSRRKK-NH2 (C-terminus assumed)”, the “final HPLC purity” value was determined as 98.2%.
